Data reported in US6528524B2, “Pharmaceutical compositions containing cinchonine dichlorhydrate” (Debiopharm SA, priority 1997, dated 2003).
Where a name gives a salt, the structure may show the parent alone. At least one read-out could not be matched to a standard name with certainty.

Assay: In vivo bioavailability / pharmacokinetic study in Beagle dogs
Conditions: 50 mg/kg
Description: These tests were performed in four “Beagle” dogs, two of which were male and two female.
Each dog received, on day 1, a dose of 50 mg per kg of cinchonine dihydrochloride and, on day 8, an equivalent dose of cinchonine monohydrochloride. Blood samples were taken at regular intervals after each administration.

C=C[C@H]1C[N@@]2CC[C@H]1C[C@@H]2[C@@H](O)c1ccnc2ccccc12 [CDH, cinchonine dihydrochloride]
bioavailability properties, compared with cinchonine monohydrochloride: improved bioavailability properties
